{"sequences": {"note": "Amino acid sequences for entries named in this document (tags omitted).", "UniProt O96013": "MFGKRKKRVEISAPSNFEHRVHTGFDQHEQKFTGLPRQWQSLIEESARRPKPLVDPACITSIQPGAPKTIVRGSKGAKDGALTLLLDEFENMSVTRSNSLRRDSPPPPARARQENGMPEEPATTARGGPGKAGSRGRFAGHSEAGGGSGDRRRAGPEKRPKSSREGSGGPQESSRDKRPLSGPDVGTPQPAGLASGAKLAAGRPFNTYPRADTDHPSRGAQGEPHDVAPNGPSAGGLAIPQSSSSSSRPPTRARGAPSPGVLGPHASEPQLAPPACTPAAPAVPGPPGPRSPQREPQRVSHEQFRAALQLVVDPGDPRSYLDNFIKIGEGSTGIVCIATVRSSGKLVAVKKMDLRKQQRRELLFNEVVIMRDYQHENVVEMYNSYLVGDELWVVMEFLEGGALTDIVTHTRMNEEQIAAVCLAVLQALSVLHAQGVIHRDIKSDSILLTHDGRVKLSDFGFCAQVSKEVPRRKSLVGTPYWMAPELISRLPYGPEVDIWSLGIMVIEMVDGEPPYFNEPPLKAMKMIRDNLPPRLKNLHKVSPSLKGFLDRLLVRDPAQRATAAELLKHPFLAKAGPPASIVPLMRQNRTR", "UniProt Q9ULV4": "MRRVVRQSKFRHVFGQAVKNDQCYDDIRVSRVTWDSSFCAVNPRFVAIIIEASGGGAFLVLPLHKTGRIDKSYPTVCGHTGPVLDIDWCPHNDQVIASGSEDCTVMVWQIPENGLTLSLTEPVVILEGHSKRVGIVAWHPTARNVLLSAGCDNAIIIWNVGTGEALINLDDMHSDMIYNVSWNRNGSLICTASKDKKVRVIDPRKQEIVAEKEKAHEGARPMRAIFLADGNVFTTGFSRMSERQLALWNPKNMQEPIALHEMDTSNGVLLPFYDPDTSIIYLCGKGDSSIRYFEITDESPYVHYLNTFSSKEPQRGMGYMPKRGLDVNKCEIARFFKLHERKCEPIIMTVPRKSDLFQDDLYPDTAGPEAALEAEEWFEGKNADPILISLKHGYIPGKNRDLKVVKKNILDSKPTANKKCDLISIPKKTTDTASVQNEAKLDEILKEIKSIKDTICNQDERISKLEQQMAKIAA"}, "source": "paper PMC9827817", "biological_target": "Flag-tagged PAK4 (P21-activated kinase 4), overexpressed in SGC-7901 cells (UniProt O96013)", "assay": "affinity purification with mass spectrometry; Flag-tagged PAK4 overexpressed in SGC-7901 cells; lysate immunoprecipitated with anti-Flag antibody; immunoprecipitates analysed by mass spectrometry", "note": "Results are given in words; binding and its absence hold for the method and conditions named. In cells and extracts the contact can be indirect. A yes stands for co-enrichment or nearness to the bait. Other partners may have been found."}
{"substance": "CORO1C in gastric cancer cell lysate (from UniProt Q9ULV4 1-474)", "values": [{"measurement": "binding", "result": "binds"}]}
